In PubChem BioAssay AID1347423 (Functional Genomics Laboratory (NCATS/FGL), 2020):
In all, about 52,000 sequences went through this assay and about 210 (0.4%) were called active.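 Rule for the calls: active = gene whose silencing raises cell survival under the drug, median off-target-corrected z-score across its silencing RNAs 2 or more; inactive = the rest.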 This is one part of the list.

Assay: Resistance to Poly (ADP-Ribose) Polymerase inhibitor: Gene Identification via Genome-wide siRNA Screen
Settings: mouse BRCA2 R2336H ES cells, olaparib, CellTiter-Glo viability; stronger effect = higher value
How it was run: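 Genome-wide siRNA screen (3 siRNAs/gene, 20 nM) in mouse ES cells carrying hypomorphic BRCA2 R2336H; olaparib 500 nM added 48 h post-transfection, CellTiter-Glo viability 72 h later. Normalized to plate-median negative control; MAD z-scores, gene median, seed-adjusted.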

Sequence | z-score
GGAAAAGCAGAUUGAAAUGTT against Gbp1 | inactive: -1.11
GCACUUUAAGAUCAACCGGTT against Bcar3 | inactive: 0.514
CCGUCCCUAUGAAAUCAGCTT against Lrat | inactive: -1.11
GGAAUGUUGCCAUAGUGGATT against 9530058B02Rik | inactive: -0.599
GGACUUUUUCACUUUCAAATT against Ugt1a5 | inactive: 0.383
GGUAUUUUUCAACAUUCUGTT against A530087D17Rik | inactive: -0.648
GGACUGGACGACAAUUAGGTT against Brms1l | inactive: 1.15
CGGCCUGUACAGUCACUUATT against Zmynd12 | inactive: -1.63
CCUUAUUUGUCCAUAAAAGTT against Pkdrej | inactive: 1.02
GGAGAGAAGAGCAGAAAGATT against Nosip | inactive: -0.29
GGCCAUAUCAUUCUUCAUUTT against Tbx18 | inactive: -0.15
GGUUAACUCCUUUUCUAGATT against 4933424B01Rik | inactive: -0.519
CCAGGGAAUUAAAUUUACATT against Lrrc16 | inactive: -1.59
GGAUAUGGUUUUUAGACACTT against 2310014H19Rik | inactive: 1.38
CCACUCCUUACAUGACCAATT against 1810060D16Rik | inactive: -0.487
GGUGGGUCUGUCUUAUUUATT against Csnk2a1 | inactive: 1.4
CCAGAUCCCUGAAUUGGAATT against Myc | inactive: 1.18
GGGAGAAGAUGAGAAGAUGTT against Casp14 | inactive: 1.8
GGACAAAUUUGCAUAGAUUTT against 1700012B15Rik | inactive: 2.2
CGGAUGAUGCCUAAACUGATT against Hspe1 | inactive: -0.885
GGAACACAAACUGAGCCUGTT against BC004044 | inactive: -0.495
GCGUGAAGCACUGAGUAAGTT against Zbed3 | inactive: -0.24
GGUAGACGACAUUGAUGAATT against 1700023O11Rik | inactive: 1.44
GGUGCAUGGAAAAAAAUUATT against Neil2 | inactive: 0.661
GCGGUUUCGAUUUUUAGUUTT against Pde3b | inactive: 0.549
GGACUUCUUAAUGUUUUACTT against Phf11 | inactive: -0.19

Sequence | z-score
CCGUGCCAAUAGUUCUGCUTT against Dpp4 | inactive: 0.286
GGUGUUUGUGGAAGAGGAATT against A030009B12Rik | inactive: -1.59
GGAGAUGGAGUCAGAUAAGTT against Aloxe3 | inactive: -1.87
GGAGGAGAACUGUUUGACATT against Camk4 | inactive: -1.32
CGUGAUUUCAGUGAGGGUGTT against A530046H20Rik | inactive: -0.284
GGCACAAGUUGACCAAUAUTT against Rtn1 | inactive: -0.956
GGUGACUUUCUGUAAUCAUTT against Idb3 | inactive: -0.267
GGAUGUAAUUUGCUCCACGTT against Jag2 | inactive: -0.361
GCGGAAUUUGGUUUCUAUUTT against Etsrp71 | inactive: 0.539
GCAAGUCGAGGUAGAUUGCTT against Rap1a | inactive: 0.0966
CCAAGCCUUAAUAAGUCAATT against 6330503K22Rik | inactive: 0.154
GGAGAAAGAGGAACUGGACTT against Cdc37 | inactive: 0.665
CCAAAUGACUUUGGUCCUATT against Vax2 | inactive: 0.193
GGAUUUGAUGGAAAUGUCATT against AA959934 | inactive: -0.405
GGAUCUGUGCUCUGAGAAGTT against Thea | inactive: -0.235
GGAGAGUCCAUACCAGAACTT against C1qa | inactive: -0.685
CGACAUUAGAGAAAGUCAUTT against Hyou1 | inactive: 2.27
GGAUGUCAGUGUUGCAAUGTT against Olfr954 | inactive: 0.364
GGGAGAUAUGCAAUGAAUATT against Creb5 | inactive: -0.788
GGCUACAACCAAAUCUUCATT against Papln | inactive: -0.0281
GGUUCUUUUUGAAACAGUUTT against Klhl11 | inactive: 0.594
GCAAGUCCCUUGAGGAUAGTT against 2900093B09Rik | inactive: -0.425
GGGUAUUCUGUACCCAGUGTT against D11Ertd636e | inactive: -1.22
GGACCAAGCCAUCUGAGUUTT against 4930511J11Rik | inactive: -1.42
GGUCUUUUACAAAAUUCCCTT against Has3 | inactive: -0.292
GGUGAAAUGGAUCGUCCUCTT against Txndc3 | inactive: -0.618

Sequence | z-score
GGAGGAGAUCGUGAUCUGCTT against AI663987 | inactive: -0.595
GGCUAAAACAGGAAAUCUGTT against Mip | inactive: 0.793
GCAUGAAGGUCGACUACGATT against Clk3 | inactive: -1.15
GGUGGAAUCGUUUUGCUGUTT against Col15a1 | inactive: -0.0515
GGAGAAUUUGGAGGUUUUGTT against Rbbp4 | inactive: 1.7
GGACCAGCACAUGUGGAUUTT against Olfr547 | inactive: 0.0809
GCCUUGGUACCAUAAUGCATT against Dmn | inactive: -0.208
GGAAAUGAAGCUCAUGGAATT against 4732421G10Rik | inactive: 0.0275
GGGAAAGAAUGGUAUUGUATT against 1110007A06Rik | inactive: -0.541
GGAUGAUACCUCCAAUAACTT against Spt2 | inactive: 0.167
GGUAAGAAUAAAGUCGCCGTT against Nfe2l2 | inactive: 0.837
GCUGCUUUGGGCACAAGAUTT against Nppb | inactive: -0.413
GCCUGAAUCUUUAAUAAUCTT against D630028G08Rik | inactive: 0.789
GGUAUUUGAUUUCACCUUUTT against Akr1a4 | inactive: 0.904
GAAACUAGUCCUACUCUUUTT against Defcr | inactive: 0.889
CCCAAAAUUGGUCAUGAUUTT against Dncic1 | inactive: 1.09
CCAACUACAAGACCAUCGGTT against Akp3 | inactive: -0.613
CCUAAAGAGGUGGUUGAACTT against 2810407K09Rik | inactive: 0.855
GGAAGGAGUAUGAAAAGAATT against Scgb3a2 | inactive: -0.343
GCUCUGAACUCAAUAAUAATT against Apg7l | inactive: -0.403
GGACCUAUCAACUGAGUUUTT against Hrc | inactive: -0.913
GGACUUCUCAUCCUAUUUATT against 4833421E05Rik | inactive: -1.38
GCACUUCCGAACAUCUAGCTT against 9130404D08Rik | inactive: -0.104
CCUUUAAAUGACCAUACUUTT against 1810057B09Rik | inactive: 0.45
CCAUGCCCACUGGAUAGAUTT against BC047219 | inactive: 1.82
GGAUCUGCCUGAUCAAAAGTT against Ivl | inactive: 0.543

Part of the list above in another layout:

| Sequence | z-score |
| --- | --- |
| GGUGAAAUGGAUCGUCCUCTT against Txndc3 | inactive: -0.618 |
| GGAGGAGAUCGUGAUCUGCTT against AI663987 | inactive: -0.595 |
| GGCUAAAACAGGAAAUCUGTT against Mip | inactive: 0.793 |
| GCAUGAAGGUCGACUACGATT against Clk3 | inactive: -1.15 |
| GGUGGAAUCGUUUUGCUGUTT against Col15a1 | inactive: -0.0515 |
| GGAGAAUUUGGAGGUUUUGTT against Rbbp4 | inactive: 1.7 |
| GGACCAGCACAUGUGGAUUTT against Olfr547 | inactive: 0.0809 |
| GCCUUGGUACCAUAAUGCATT against Dmn | inactive: -0.208 |
| GGAAAUGAAGCUCAUGGAATT against 4732421G10Rik | inactive: 0.0275 |
| GGAUGAUACCUCCAAUAACTT against Spt2 | inactive: 0.167 |
| GGUAAGAAUAAAGUCGCCGTT against Nfe2l2 | inactive: 0.837 |
| GCUGCUUUGGGCACAAGAUTT against Nppb | inactive: -0.413 |
| GCCUGAAUCUUUAAUAAUCTT against D630028G08Rik | inactive: 0.789 |
| GGUAUUUGAUUUCACCUUUTT against Akr1a4 | inactive: 0.904 |
| GAAACUAGUCCUACUCUUUTT against Defcr | inactive: 0.889 |
| CCCAAAAUUGGUCAUGAUUTT against Dncic1 | inactive: 1.09 |
| CCAACUACAAGACCAUCGGTT against Akp3 | inactive: -0.613 |
| GGAAGGAGUAUGAAAAGAATT against Scgb3a2 | inactive: -0.343 |
| GCUCUGAACUCAAUAAUAATT against Apg7l | inactive: -0.403 |
| GGACCUAUCAACUGAGUUUTT against Hrc | inactive: -0.913 |
| GGACUUCUCAUCCUAUUUATT against 4833421E05Rik | inactive: -1.38 |
| GCACUUCCGAACAUCUAGCTT against 9130404D08Rik | inactive: -0.104 |
| CCAUGCCCACUGGAUAGAUTT against BC047219 | inactive: 1.82 |
| GGAUCUGCCUGAUCAAAAGTT against Ivl | inactive: 0.543 |

The list goes on:

Sequence | z-score
GGAGGAGUGCAAGAAGAAGTT against 1110025H10Rik | inactive: -1.36
GGAUUACAGGCAUUUGGUUTT against Hmgn1 | inactive: -0.0101
GCUGGAGUUCAGAACAUAATT against C920008G01Rik | inactive: 0.0423
GCAUCAAACCUGGUUCGAATT against Mast2 | inactive: -0.818
GGCAAUGGACCUUUGAUGCTT against 2310042N02Rik | inactive: -0.531
GGUAGCUGUGAAGAUCAUCTT against Mark2 | inactive: -0.201
GGUCCUUGAGCUAAGGACATT against A030009A06Rik | inactive: -0.081
CCUGAAUUCUACAAGGUUATT against Plg | inactive: 1.13
GCGCAAGGAUAACUUUCAATT against Pib5pa | inactive: -0.309
GGCUAGACUACAUCACAGCTT against H2-Ke2 | inactive: 0.000787
AGGAAAGCUUUCUUCACCUTT against Olfr206 | inactive: 0.214
GCCACUUAGAAUGACCUAATT against 5330431N19Rik | inactive: 1.35
GGAAAAGAAAAUCAUUGCGTT against 1500016L11Rik | inactive: -0.595
GGGCGACUUUAGCUUUUAUTT against MGC47262 | inactive: -1.24
GGCUUUUAGACAUUUAUCUTT against Pdlim3 | inactive: 0.279
GCUAAUUCAUGAAUUGAUGTT against Ofd1 | inactive: -0.985
GCUAUCGUUCGUCCAGCAUTT against Atf2 | inactive: -2.27
CCAUUUGAUCAAGCUUUAGTT against Spock3 | inactive: 0.707
GGUAUCAAUGAUUUUCUUGTT against Tas2r110 | inactive: 0.357
GGAAACAUCAGUGAGUCCGTT against Igfbp3 | inactive: 0.385
GCGGUAGUUUCACACUUAUTT against Onecut1 | inactive: -0.281
GCGCGACAACCUGAUUCAATT against BC034204 | inactive: 1.36
GGCAUUAUACCCAUCAGGCTT against Mtvr2 | inactive: 0.835
CGGUAUGAGUAGGAUCUCCTT against Cd83 | inactive: -0.494
CCAUCCGUAACAUCGACUGTT against 5730589L02Rik | inactive: 0.333
